Measured values reported in paper PMC3882236, “A Neutralization Epitope in the Hepatitis C Virus E2 Glycoprotein Interacts with Host Entry Factor CD81” (PLoS ONE, 2014).
These are yes or no findings as the source states them, for the method shown. Some binding calls cover weakened binding; strength is not graded here. Tags and fused reporters may be left off the sequences shown.

Tests used:
Assay in all cases: luciferase-based plate binding assay; supernatant (100 uL/well) with E2-16Fc or a mutant form held on protein A-coated 96-well plates, room temperature, 1 h; PBS-T wash; CD81-Luc supernatant (2.5x10^6 units of luciferase activity in 30 uL) added for 1 h, with or without 1H8 (10 or 50 ug/reaction); PBS-T rinse; bound luciferase activity read
[1] = molecular target: E2-16Fc S528A (Hepatitis C virus genotype 1a, H77 strain) (UniProt P27958)
[2] = molecular target: E2-16Fc S528N (Hepatitis C virus genotype 1a, H77 strain) (UniProt P27958)
[3] = molecular target: E2-16Fc A524V (Hepatitis C virus genotype 1a, H77 strain) (UniProt P27958)
[4] = molecular target: E2-16Fc P525A (Hepatitis C virus genotype 1a, H77 strain) (UniProt P27958)
[5] = molecular target: E2-16Fc A524G (Hepatitis C virus genotype 1a, H77 strain) (UniProt P27958)
[6] = molecular target: E2-16Fc S528T (Hepatitis C virus genotype 1a, H77 strain) (UniProt P27958)
[7] = molecular target: E2-16Fc (HCV E2 protein residues 384-661 fused to human IgG1 Fc) (Hepatitis C virus genotype 1a, H77 strain) (UniProt P27958)

Measured: binding

B1: CD81-Luc (large extracellular domain of human CD81, residues 113-201, fused with gaussia luciferase) (domain or fragment, UniProt P60033 113-201, looked up)
chain: FVNKDQIAKDVKQFYDQALQQAVVDDDANNAKAVVKTFHETLDCCGSSTLTALTTSVLKNNLCPSGSNIISNLFKEDCHQKIDDLFSGK
notes: human CD81, large extracellular domain, residues 113-201; source: Huh7, transiently transfected, secreted into the cell culture medium (supernatant)
binds: [1] | [2] | [3] | [4] | [5] | [6] | [7]
